Consider 59 compounds from PubChem BioAssay AID2685 (National Center for Advancing Translational Sciences (NCATS), 2010).

The nature of this assay: qHTS Assay for Lipid Storage Modulators in Drosophila S3 Cells.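 For cell number change: cells counted by Cell Tracker Red CMTPX staining in the red channel.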 The note with it: BODIPY lipid droplet fluorescence, 18-24 h; for cell number change: measured here: cell count max response, cells fed with added oleic acid. In outline: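 Drosophila S3 cells loaded with oleic acid (400 uM, as added) and compounds at several concentrations; lipid droplets imaged by 488-nm laser-scanning cytometry, 500–530 nm intensity and object ratio to cell channel. Percent activity normalized to 20 uM Triacsin C.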
A general note: In qHTS, concentration-response curves come from the screen itself.

The mark [1] stands for this setting: measured here: cell number channel AC50, cells fed with added oleic acid.
Where [2] appears, read: measured here: lipid fluorescence (Fed channel) AC50, cells fed with added oleic acid.

This is one part of the list. The main result of the screen is listed elsewhere. These columns were measured beside it and carry no call. The list favours compounds with an active or inconclusive main result. The note in brackets gives the kind of curve behind each potency; many fits are weak.

Turning to `CCc1c(C)sc(NC(=O)c2cc(-c3ccc(O)cc3)on2)c1C#N`, the cell number change is -30.8%. Also, the AC50 under setting [1] was 6.51 µM [falling, single point]. Further, the AC50 under setting [2] was 0.103 µM [rising, full curve].

For the compound `CCOC(=O)C1CCN(CC(=O)Nc2c(C(=O)OC)[nH]c3ccccc23)CC1`, the cell number change was -32.1%. Besides, under setting [1], the AC50 is 7.31 µM [falling, partial curve].

`COc1ccc(CCNc2ncnc3c2oc2ccccc23)cc1OC`: the cell number change was -59.7%. Further, the AC50 under setting [1] was 5.8 µM [falling, partial curve]. Besides, the AC50 under setting [2] is 3.66 µM [falling, partial curve].

`COc1cccc(C2CC(c3ccc(C)cc3)n3ncnc3N2)c1` (stereo not given): the cell number change worked out at 47.9%. Further, the AC50 under setting [1] was 29.1 µM [rising, single point].

On to `Cc1cc(C)cc(NC(=O)CN2CCC(C(=O)c3ccccc3)CC2)c1`, for which the cell number change was found to be 10.3%. Besides, under setting [2], the AC50 is 2.06 µM [rising, full curve].

In the case of `c1ccc2c(CN3CCSCC3)cccc2c1`, the cell number change came to 17.5%. Also, the AC50 under setting [2] is 29.1 µM [rising, single point].

For `CCOC(=O)[C@H]1[C@H]2COc3ccc(C)cc3[C@@H]2N2C(=O)CN(Cc3ccccc3)C(=O)[C@@]12C`, the cell number change was -17.5%.

For the compound `O=C1/C(=C\c2ccccc2)SC(=S)N1CCC(=O)N1CCCCC1CCO` (stereo not given), the cell number change came to 8.02%. In addition, the AC50 under setting [2] was 10.3 µM [falling, partial curve].

For the compound `Cc1cc(O)c(Sc2ncn[nH]2)cc1NS(=O)(=O)c1ccc(Cl)cc1`, the cell number change was -21.2%. The AC50 under setting [2] was 7.31 µM [falling, single point].

Turning to `O=C(CSc1nnc2c(Cl)cc(Cl)cn12)N1CCOCC1`, the AC50 is, setting by setting: under setting [1], 0.651 µM [falling, full curve, poor fit]; under setting [2], 6.51 µM [falling, single point].

Take `Cn1c(NC(=O)C[n+]2cc(-c3ccc(F)cc3)n3c2CCC3)cc(=O)n(C)c1=O`: the cell number change was 4.9%.

`C=CCn1c(SCC(=O)Nc2cc(C)on2)nc2sc(C)c(C)c2c1=O`: the AC50 reads like this: under setting [1], 0.231 µM [rising, full curve, poor fit]; under setting [2], 2.06 µM [rising, partial curve].

Regarding `CCOC(=O)CNC(=O)OC1CCN2Cc3ccccc3N=C12` (stereo not given), the cell number change stood at 17.8%. Besides, under setting [2], the concentration at half-maximal activity (AC50) was 6.51 µM [falling, single point].

For the compound `O=C(N/N=C/C1C(c2ccccc2)C1(Cl)Cl)c1cccc(Br)c1` (stereo not given), the cell number change turned out to be 112%. Under setting [2], the AC50 was 29.1 µM [rising, partial curve].

On to `COc1ccc(OC)c(NC(=O)COC(=O)c2cc3c(s2)CCC3)c1`, for which the AC50 under setting [1] is 0.651 µM [rising, partial curve, poor fit].

Take `COc1ccc2cnn(CCOc3cc(C)ccc3C(C)C)c(=O)c2c1OC`: the AC50 under setting [2] was 5.8 µM [rising, partial curve].

Consider `COCCNC(=O)c1cc2sccc2n1C`, for which the cell number change came to 0.873%. Also, under setting [2], the AC50 is 5.17 µM [rising, full curve, poor fit].

For `CCN(CC)S(=O)(=O)c1cccc(NC(=O)COC(=O)c2ccc(Br)o2)c1`, the cell number change was -51.2%. The AC50 under setting [1] was 13 µM [falling, partial curve].

With `CCOC(=O)Cn1c(=O)oc2cc(S(=O)(=O)N(C)c3ccc(OC)cc3)ccc21`, the cell number change was -10.2%. Further, the AC50 under setting [1] is 6.51 µM [rising, single point]. For the same compound, the AC50 under setting [2] was 6.51 µM [rising, single point].

For `CN(C)Cc1ccc(CNC(=O)COc2ccc3ccccc3c2)cc1`, the cell number change was -5.71%. Under setting [2], the AC50 is 4.11 µM [rising, full curve].

With `CC1CCCC(C)N1C(=O)Cn1nnc(-c2ccccc2)n1` (stereo not given), the cell number change came out at 14.4%. Further, under setting [2], the AC50 was 6.51 µM [rising, single point].

Consider `COC(=O)c1cc(NC(=O)Cc2cccs2)cc(C(=O)OC)c1`, for which the cell number change was found to be 38.9%.

For the compound `CC(=O)C1=C(O)C(=O)N(c2cc(C(C)(C)C)on2)C1c1ccc(Br)cc1` (stereo not given), the cell number change is -50.7%. Besides, under setting [1], the AC50 is 18.4 µM [falling, partial curve]. Moreover, the AC50 under setting [2] was 0.13 µM [rising, full curve, poor fit].

`COC(=O)/C(=C\Nc1ccc(OC)cc1)NC(=O)c1ccc(Cl)cc1Cl`: the cell number change was -3.53%. Moreover, the AC50 under setting [1] was 0.0058 µM [falling, full curve, poor fit].

For the compound `CCOC(=O)c1cc(-c2cc3ccccc3o2)nc2c1c(=O)[nH]c(=O)n2CCOC`, the cell number change is 7.93%. For the same compound, the AC50 under setting [2] was 0.517 µM [rising, full curve, poor fit].

For `Cc1cc(NS(=O)(=O)c2ccc(NC(=O)COc3ccccc3C(C)(C)C)cc2)no1`, the cell number change was -2.89%. Further, the AC50 under setting [2] was 10.3 µM [rising, partial curve].

With `COc1ccc(C(=O)Cc2ccc(OC)c(OC)c2)cc1`, the cell number change is -14.1%.

As to `Cc1nc(N2CCN(C(=O)CCC(=O)O)CC2)c2c(C)c(C)sc2n1`, the cell number change is 2.66%.

Turning to `O=C(CSc1ccc([N+](=O)[O-])cc1)OCC(=O)N1CCCC1=O`, the cell number change was -2.57%.

Regarding `CCc1ccccc1N1CC(C(=O)Nc2cc(C)on2)CC1=O` (stereo not given), the cell number change turned out to be 7.89%.

With `CN1C(=O)C2(c3ccccc31)c1c(oc3ccccc3c1=O)C(=O)N2CCCO` (stereo not given), the cell number change was determined as 19.8%. Under setting [2], the AC50 was 0.0731 µM [rising, full curve, poor fit].

For the compound `COc1ccccc1NS(=O)(=O)c1cccc(C(=O)N2CC(C)OC(C)C2)c1` (stereo not given), the cell number change is -34.7%. Also, under setting [1], the AC50 was 16.4 µM [falling, single point]. The AC50 under setting [2] is 18.4 µM [falling, single point].

With `O=C(NCC(=O)N1CCN(c2ccc(C(F)(F)F)cn2)CC1)c1ccc(Br)o1`, the cell number change was determined as 0.963%. In addition, the AC50 under setting [2] is 6.51 µM [rising, single point].

Take `CN(CC(=O)Nc1c(Cl)cccc1Cl)C(=O)CCc1nc2sc3c(c2c(=O)[nH]1)CCCC3`: the cell number change came to 15%. The AC50 under setting [2] was 18.4 µM [rising, single point].

Consider `CC(=O)c1c(C)nn(CC(=O)NC2CCCN(Cc3ccc(CC(C)C)cc3)C2)c1C` (stereo not given), for which the cell number change stood at 11.6%. Further, the AC50 under setting [2] is 0.58 µM [rising, single point].

Regarding `Cc1ccccc1Cn1c(=O)sc2ccccc2c1=O`, the cell number change was 53.1%. Further, under setting [1], the AC50 was 20.6 µM [rising, single point].

`Cc1ccccc1NC(=O)CSc1nnc(C)c2ccccc12`: the cell number change was 10.1%.

Take `CC(C)NC(=O)c1c(CSc2ccccc2)noc1C(=O)NCc1ccccc1`: the cell number change was 1.36%. Under setting [2], the AC50 was 4.11 µM [rising, full curve, poor fit].

For `COC(C[C@@H]1O[C@@H]1C(=O)COCc1ccccc1)OC`, the cell number change is -3.15%. The AC50 under setting [2] is 0.326 µM [falling, full curve, poor fit].

Take `C[C@H](NC(=O)c1nc[nH]c1C(=O)NCc1ccc(CNC(=O)OC(C)(C)C)cc1)C(=O)OC(C)(C)C`: the cell number change was -12.3%. Moreover, the AC50 under setting [2] was 29.1 µM [falling, single point].

As to `O=C1OCCN1c1c(-c2ccccc2)c(-c2cccs2)nc2c(-c3ccccc3)cccc12`, the cell number change is -0.299%. The AC50 under setting [2] is 25.9 µM [falling, partial curve, poor fit].

Regarding `CN(C)C1=NCCN1CCC1CCCCC1`, the cell number change was -0.109%. In addition, the AC50 under setting [2] was 23.1 µM [rising, single point].

Regarding `COc1ccc(CC(NC(C)=O)C(=O)NC2CCN(C(=O)Nc3ccccc3Cl)CC2)cc1OC` (stereo not given), the cell number change was -56.5%. The AC50 under setting [1] is 25.9 µM [falling, single point].

Consider `Cc1ccc(S(=O)(=O)N2CCCCC2)cc1NC(=O)CSc1ncccn1`, for which the cell number change is -14.6%.

As for `CC1(C)CC(O)C(C(O)c2cccc([N+](=O)[O-])c2)C(C)(C)N1` (stereo not given), the cell number change was -19.9%. Also, the AC50 under setting [1] was 0.731 µM [falling, full curve]. For the same compound, the AC50 under setting [2] was 5.8 µM [falling, full curve].

Take `O=C(O)CCc1ccc(-c2ccc(Br)cc2)n1Cc1ccco1`: the AC50 under setting [2] is 9.2 µM [falling, partial curve].

Turning to `O=C(COC(=O)c1cc(Br)ccc1O)NNC(=O)c1cccs1`, the cell number change is -9.27%. The AC50 under setting [2] was 6.51 µM [falling, single point].

On to `Cn1cc(C(=O)c2ccc(Cl)cc2Cl)cc1C(=O)N/N=C(\N)COc1ccc(Cl)cc1`, for which the cell number change came to 19.1%. Further, the AC50 under setting [2] is 14.6 µM [rising, partial curve].

`O=C1CC(c2ccccc2)C(C(=O)O)N1` (stereo not given): the cell number change was found to be 6.79%. In addition, the AC50 under setting [2] is 3.26 µM [falling, single point].

In the case of `CC1=NN(C(=O)COc2cc(C)ccc2C(C)C)C(O)(c2ccccc2)C1` (stereo not given), the cell number change was -19.1%. Also, under setting [2], the AC50 is 0.326 µM [falling, partial curve, poor fit].

Consider `COCCN(C(=O)Cc1cccs1)C(C(=O)NCc1ccc(OC)cc1)c1ccc(C(C)C)cc1` (stereo not given), for which the AC50 is, setting by setting: under setting [1], 2.31 µM [rising, single point]; under setting [2], 3.66 µM [rising, partial curve].

Take `COc1ccc(N(CC(=O)NCc2ccc3c(c2)OCO3)S(=O)(=O)c2c(C)nn(C)c2C)cc1`: the cell number change is 23%. Also, under setting [1], the AC50 was 0.0231 µM [rising, full curve, poor fit].

Consider `CCOc1ccc(CCNC(=O)CN2CCN(Cc3ccc(F)cc3)C2=O)cc1OCC`, for which the cell number change was -17.9%. The AC50 under setting [2] was 3.66 µM [falling, full curve, poor fit].

Take `C[N+]1=C(/C=C/Nc2ccccc2Cl)C(C)(C)c2ccccc21`: the cell number change is -1.83%. The AC50 under setting [2] was 16.4 µM [falling, single point].

For `CCCCCCCC[n+]1c(C)n(-c2ccccc2)c2ccc(NC(C)=O)cc21`, the cell number change is -54.9%. The AC50 under setting [1] was 29.1 µM [falling, single point]. Under setting [2], the AC50 is 29.1 µM [falling, partial curve].

For the compound `CC(Sc1nnnn1-c1ccc(O)cc1)c1nc2ccccc2c(=O)[nH]1` (stereo not given), the cell number change came out at 17.5%. Moreover, under setting [1], the AC50 is 0.0651 µM [rising, full curve, poor fit]. Under setting [2], the AC50 is 1.16 µM [rising, partial curve].

As for `CC[n+]1c(/C=C/N(C)c2ccccc2)oc2ccc(Cl)cc21`, the cell number change was -27.4%. Also, the AC50 under setting [2] is 29.1 µM [falling, single point].

Regarding `CCCn1c(/C=C/c2cc[n+](C)cc2)nc2ccccc21`, the cell number change is -8.93%. Besides, the AC50 under setting [2] was 0.0517 µM [falling, full curve, poor fit].

On to `NC1=NC(=Nc2cccc(S(N)(=O)=O)c2)c2ccccc21`, for which the cell number change is -41.3%. Further, the AC50 under setting [1] was 25.9 µM [falling, single point]. Moreover, the AC50 under setting [2] is 29.1 µM [falling, single point].

Broadly, the AC50 is the midpoint of the concentration-response curve, whichever way the signal moves. Read a high AC50 as weaker potency.
